Drawing on PubChem BioAssay AID1532 (PCMD, 2009), this text covers inhibition for 3 molecules.

This is one part of the list.

The subject of the assay is RmlC (dTDP-4-dehydrorhamnose 3,5-epimerase) and RmlD (dTDP-4-dehydrorhamnose reductase), coupled enzyme assay. Nature of the assay: RmlC and RmlD coupled enzyme inhibitors, primary screen, biochemical, 384-well, compound mixtures, retest (AID 1532). The conditions noted are these: 384-well mixture HTS, measured here: mean retest inhibition, at 5.5 µM, stronger effect = higher value.
Consider `O=P(Nc1nccs1)(c1ccccc1)c1nc2ccccc2s1` (stereo not drawn), for which the inhibition (commonly the relative decrease from the control value, in per cent) stood at 32.7%.

Take `CN(C)CCOC(=O)C(O)(c1ccccc1)C1CCCC1` (stereo not drawn): the inhibition is -7.37%.

On to `CCc1ccc(OP(C)(=O)O)cc1`, for which the inhibition is -1.87%.
